# Patent publication US20210324058A1 (BRIGHAM AND WOMEN S HOSPITAL, published 2021)
# Results are given in words; binding and its absence hold for the method and conditions named. In cells and extracts the contact can be indirect. Some results given as binding are weak or reduced against the parent protein; the word gives no strength.
# B1: recombinant P-Selectin/CD62P, R&D Systems ADP3-200 (other, human, UniProt P16109 42-771, looked up)
# chain: WTYHYSTKAYSWNISRKYCQNRYTDLVAIQNKNEIDYLNKVLPYYSSYYWIGIRKNNKTWTWVGTKKALTNEAENWADNEPNNKRNNEDCVEIYIKSPSAPGKWNDEHCLKKKHALCYTASCQDMSCSKQGECLETIGNYTCSCYPGFYGPECEYVRECGELELPQHVLMNCSHPLGNFSFNSQCSFHCTDGYQVNGPSKLECLASGIWTNKPPQCLAAQCPPLKIPERGNMTCLHSAKAFQHQSSCSFSCEEGFALVGPEVVQCTASGVWTAPAPVCKAVQCQHLEAPSEGTMDCVHPLTAFAYGSSCKFECQPGYRVRGLDMLRCIDSGHWSAPLPTCEAISCEPLESPVHGSMDCSPSLRAFQYDTNCSFRCAEGFMLRGADIVRCDNLGQWTAPAPVCQALQCQDLPVPNEARVNCSHPFGAFRYQSVCSFTCNEGLLLVGASVLQCLATGNWNSVPPECQAIPCTPLLSPQNGTMTCVQPLGSSSYKSTCQFICDEGYSLSGPERLDCTRSGRWTDSPPMCEAIKCPELFAPEQGSLDCSDTRGEFNVGSTCHFSCDNGFKLEGPNNVECTTSGRWSATPPTCKGIASLPTPGVQCPALTTPGQGTMYCRHHPGTFGFNTTCYFGCNAGFTLIGDSTLSCRPSGQWTAVTPACRAVKCSELHVNKPIAMNCSNLWGNFSYGSICSFHCLEGQLLNGSAQTACQENGHWSTTVPTCQAGPLTIQEA
# notes: Bought recombinant protein; Species is read from 'Purified human NEDD9 and P-Selectin/CD62P'; also called exogenous P-Selectin
# Legend:
# [1] = molecular target: T1, endogenous human NEDD9 of human pulmonary artery endothelial cells (lysates and plasma membrane fractions) (human) (UniProt Q14511); experiment: anti-P-Selectin IP of HPAEC plasma membrane fractions with recombinant P-Selectin; LC-MS and co-immunoprecipitation
# T1 sequence (looked up): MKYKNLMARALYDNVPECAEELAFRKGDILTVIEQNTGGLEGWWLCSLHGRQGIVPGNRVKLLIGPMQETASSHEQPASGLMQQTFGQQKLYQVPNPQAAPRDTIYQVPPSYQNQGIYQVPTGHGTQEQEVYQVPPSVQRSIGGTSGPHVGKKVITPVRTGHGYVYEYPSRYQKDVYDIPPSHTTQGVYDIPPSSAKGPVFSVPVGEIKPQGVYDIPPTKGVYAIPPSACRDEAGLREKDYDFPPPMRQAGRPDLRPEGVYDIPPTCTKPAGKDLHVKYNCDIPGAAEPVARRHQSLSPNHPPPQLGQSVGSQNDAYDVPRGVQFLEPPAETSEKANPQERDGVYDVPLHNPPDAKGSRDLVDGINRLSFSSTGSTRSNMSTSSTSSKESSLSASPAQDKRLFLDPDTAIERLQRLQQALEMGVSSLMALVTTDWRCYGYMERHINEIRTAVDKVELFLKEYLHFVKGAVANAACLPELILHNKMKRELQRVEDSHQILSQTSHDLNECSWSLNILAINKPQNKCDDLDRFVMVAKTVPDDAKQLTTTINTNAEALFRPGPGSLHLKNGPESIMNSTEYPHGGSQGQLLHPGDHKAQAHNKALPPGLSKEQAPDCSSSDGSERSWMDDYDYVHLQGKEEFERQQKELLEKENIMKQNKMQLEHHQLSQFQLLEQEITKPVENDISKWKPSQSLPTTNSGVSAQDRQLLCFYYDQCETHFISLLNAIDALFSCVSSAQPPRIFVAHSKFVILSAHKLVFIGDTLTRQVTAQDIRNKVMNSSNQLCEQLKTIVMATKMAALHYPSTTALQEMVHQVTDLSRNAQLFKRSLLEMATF
# [2] = molecular target: T1, endogenous human NEDD9 of human pulmonary artery endothelial cells (lysates and plasma membrane fractions) (human); experiment: co-immunoprecipitation from HPAEC plasma membrane fractions: IP anti-P-Selectin, immunoblot with NEDD9 Ab #1
binder,measurement,setting,value
B1,binding,[1],binds
same,binding,[2],binds
